Reference: PMC7862700
This is a selection; strong and weak results do not stand in their true shares. At the low end of the ranking, values are background and their order means little.

The chains behind the UniProt entries cited, without tags or fusion partners. Where a name states a change or a piece, a line headed by the entry shows the natural chain unless it says otherwise.
UniProt Q9Y603: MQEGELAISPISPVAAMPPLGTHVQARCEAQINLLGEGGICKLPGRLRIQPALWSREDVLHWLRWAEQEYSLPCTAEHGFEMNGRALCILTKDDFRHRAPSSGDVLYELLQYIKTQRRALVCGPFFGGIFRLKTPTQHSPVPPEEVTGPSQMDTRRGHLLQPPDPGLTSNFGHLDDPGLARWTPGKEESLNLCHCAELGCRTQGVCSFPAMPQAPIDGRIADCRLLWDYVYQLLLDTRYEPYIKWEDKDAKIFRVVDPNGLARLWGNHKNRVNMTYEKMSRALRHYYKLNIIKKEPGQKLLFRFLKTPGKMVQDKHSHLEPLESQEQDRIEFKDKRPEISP
UniProt P41212: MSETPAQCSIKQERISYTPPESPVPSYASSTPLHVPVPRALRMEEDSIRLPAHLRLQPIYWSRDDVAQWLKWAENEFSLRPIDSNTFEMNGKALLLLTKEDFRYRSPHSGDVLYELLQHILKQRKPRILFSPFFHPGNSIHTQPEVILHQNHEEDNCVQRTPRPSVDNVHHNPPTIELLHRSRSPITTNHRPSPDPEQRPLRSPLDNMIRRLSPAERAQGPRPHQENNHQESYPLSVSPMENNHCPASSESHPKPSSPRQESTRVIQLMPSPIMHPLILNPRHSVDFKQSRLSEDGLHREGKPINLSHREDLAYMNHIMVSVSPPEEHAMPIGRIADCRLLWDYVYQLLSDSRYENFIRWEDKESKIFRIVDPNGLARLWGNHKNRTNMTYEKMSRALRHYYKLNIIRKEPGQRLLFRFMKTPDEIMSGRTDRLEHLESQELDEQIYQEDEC

Assays:
[1] = target: ETV7 (UniProt Q9Y603); experiment: DAPPL (digital affinity profiling via proximity ligation, sequencing); conditions: 10 mM Tris-HCl pH 7.5, 50 mM NaCl, 1 mM DTT, 4% glycerol, room temperature, 30 min; GST-TFs on glutathione beads, 16-mer random dsDNA library, 0.1% …; high values mean tight binding; double strand, one strand shown; scale: fold enrichment (6-mer frequency, TF over GST control)
[2] = target: ETV6 (UniProt P41212); experiment: as above; conditions: 10 mM Tris-HCl pH 7.5, 50 mM NaCl, 1 mM DTT, 4% glycerol, room temperature, 30 min; GST-TFs on glutathione beads, 16-mer random dsDNA library, 0.1% …; high values mean tight binding; double strand, one strand shown; scale: fold enrichment (6-mer frequency, TF over GST control)

Sequence	binding signal [1]	binding signal [2]
ACTCGG	1.06	0.976
AAGCCT	1.3	1.23
AACCCC	1.11	1.18
CCAGCA	0.931	0.871
CTCCAA	1.52	1.28
TGATTG	1.05	1.04
GCCCCC	0.939	1.05
CGCTAA	0.941	0.942
GTGTTC	1.11	1.09
GCCACA	0.856	0.901
CAATGA	0.94	0.966
TCACCA	1.04	1.08
AAGGGA	0.889	0.961
AGGTCC	0.969	0.996
GGCGTT	0.929	0.916
TAGCAA	1.25	1.29
CCCTCA	1.07	1.09
TGCGAC	1.29	1.28
GTGCAC	0.939	0.869
GGTTGT	0.876	0.881
AGGTGT	0.869	0.786
CTATGT	1.3	0.995

Looked up one by one from above, two records:
Sequence	binding signal [1]	binding signal [2]
AGGTCC	0.969	0.996
AACCCC	1.11	1.18

(further entries)

Sequence	binding signal [1]	binding signal [2]
CATAAT	1.02	1.07
ACCACA	0.839	1.08
TGGGTA	1.01	0.921
TACGGT	1.08	0.941
AGCGAT	1.09	0.995
AACCGC	–	1.19
GCTGGT	–	1.13
CGCGCT	1.14	1.15
GGTCAC	0.939	0.993
AGCTGA	1.09	0.988
CTGACC	–	1.32
TCTATC	1.27	1.32
TTACGT	–	1.09
GCACAC	0.943	0.983
CCACTA	–	1.07
TGTTAG	0.928	0.943
GTAGAA	0.941	0.945
TCAACA	0.988	0.946
GGACAT	1.23	1.18
TTAAGG	–	1.06
GGGTTC	0.982	0.999
ATTTAA	–	1.21
